This is an account of results in paper PMC4811471.

The chains behind the UniProt entries cited, without tags or fusion partners.
UniProt Q15717, whole entry: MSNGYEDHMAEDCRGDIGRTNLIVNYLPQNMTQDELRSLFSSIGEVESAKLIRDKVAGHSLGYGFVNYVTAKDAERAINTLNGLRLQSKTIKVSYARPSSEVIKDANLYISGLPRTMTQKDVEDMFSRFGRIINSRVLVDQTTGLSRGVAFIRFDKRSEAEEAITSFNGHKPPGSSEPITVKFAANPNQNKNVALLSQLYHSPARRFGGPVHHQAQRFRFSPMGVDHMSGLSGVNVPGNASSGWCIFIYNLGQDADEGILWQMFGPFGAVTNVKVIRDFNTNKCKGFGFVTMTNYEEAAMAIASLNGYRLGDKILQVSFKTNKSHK

The exact form of at least one protein or probe is not confirmed. Negatives hold for the conditions tested.

This data set has as its target GST-HuR (UniProt Q15717). Nature of the data set: UV cross-linking. The conditions noted are these: 3 mM Mg2+, 300 mM KCl; UV cross-linking: 10 mM Tris-HCl pH 7.4, 3 mM MgCl2, 300 mM KCl, 1 mM DTT, 0.2 mM PMSF, leupeptin, 30 min room temperature, then RNase T1/A and heparin; recombinant protein; protein details: N-terminal GST (pGEX-KG); label: 32P-UTP; probe letters rebuilt from the primers and the genome; part of a longer ….

As to “AUAUAAGAACUCUUGCAGUCUUAGAUGUUAUAAAAAUAUAUAUCUGAAUUGUAAGAGUUGUUAGCACAAGUUUUUUUUUUUUUUUUUUUUAAGCACUUGUUUUGGGUACAAGGCAUUUCUGACAUUUUAUAAACCUACAUUUAAGGGGAAUUUUUAAAGGAAAUGUUUUUUCUUUUUUUUUUGUUUUUCGAGGGGGCAAG [PDCD4 3'UTR S1]”, the binding result is “binds”. Next, “GAGGGACAGAAAAGUAACCUCUUCUUAAGUGGAAUAUUCUAAUAAGCUACCUUUUGUAAGUGCCAUGUUUAUUAUCUAAUCAUUCCAAGUUUUGCAUUGAUGUCUGACUGCCACUCCUUUCUUUCAAGGACAGUGUUUUUUGUAGUAAAAUCACUGGUUUAUACAAAGCUUUAUUUAGGGGGUAAAGUUAAGCUGCUAAAA [PDCD4 3'UTR S2]”: “no binding”.
